Experimental data as given in the supplement of paper PMC10849652.
The other results are listed elsewhere or left out.

Protein sequences, listed by entry. Tags and fused reporters are not part of them. Lines headed by an entry give the natural chain unless they say otherwise; changes in a name come on top.
UniProt Q96AT1: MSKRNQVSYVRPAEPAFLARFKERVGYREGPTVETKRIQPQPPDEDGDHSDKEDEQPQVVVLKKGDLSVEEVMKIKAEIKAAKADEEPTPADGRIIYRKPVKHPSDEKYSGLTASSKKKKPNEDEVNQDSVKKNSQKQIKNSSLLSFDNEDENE
UniProt Q03164, whole entry, looked up: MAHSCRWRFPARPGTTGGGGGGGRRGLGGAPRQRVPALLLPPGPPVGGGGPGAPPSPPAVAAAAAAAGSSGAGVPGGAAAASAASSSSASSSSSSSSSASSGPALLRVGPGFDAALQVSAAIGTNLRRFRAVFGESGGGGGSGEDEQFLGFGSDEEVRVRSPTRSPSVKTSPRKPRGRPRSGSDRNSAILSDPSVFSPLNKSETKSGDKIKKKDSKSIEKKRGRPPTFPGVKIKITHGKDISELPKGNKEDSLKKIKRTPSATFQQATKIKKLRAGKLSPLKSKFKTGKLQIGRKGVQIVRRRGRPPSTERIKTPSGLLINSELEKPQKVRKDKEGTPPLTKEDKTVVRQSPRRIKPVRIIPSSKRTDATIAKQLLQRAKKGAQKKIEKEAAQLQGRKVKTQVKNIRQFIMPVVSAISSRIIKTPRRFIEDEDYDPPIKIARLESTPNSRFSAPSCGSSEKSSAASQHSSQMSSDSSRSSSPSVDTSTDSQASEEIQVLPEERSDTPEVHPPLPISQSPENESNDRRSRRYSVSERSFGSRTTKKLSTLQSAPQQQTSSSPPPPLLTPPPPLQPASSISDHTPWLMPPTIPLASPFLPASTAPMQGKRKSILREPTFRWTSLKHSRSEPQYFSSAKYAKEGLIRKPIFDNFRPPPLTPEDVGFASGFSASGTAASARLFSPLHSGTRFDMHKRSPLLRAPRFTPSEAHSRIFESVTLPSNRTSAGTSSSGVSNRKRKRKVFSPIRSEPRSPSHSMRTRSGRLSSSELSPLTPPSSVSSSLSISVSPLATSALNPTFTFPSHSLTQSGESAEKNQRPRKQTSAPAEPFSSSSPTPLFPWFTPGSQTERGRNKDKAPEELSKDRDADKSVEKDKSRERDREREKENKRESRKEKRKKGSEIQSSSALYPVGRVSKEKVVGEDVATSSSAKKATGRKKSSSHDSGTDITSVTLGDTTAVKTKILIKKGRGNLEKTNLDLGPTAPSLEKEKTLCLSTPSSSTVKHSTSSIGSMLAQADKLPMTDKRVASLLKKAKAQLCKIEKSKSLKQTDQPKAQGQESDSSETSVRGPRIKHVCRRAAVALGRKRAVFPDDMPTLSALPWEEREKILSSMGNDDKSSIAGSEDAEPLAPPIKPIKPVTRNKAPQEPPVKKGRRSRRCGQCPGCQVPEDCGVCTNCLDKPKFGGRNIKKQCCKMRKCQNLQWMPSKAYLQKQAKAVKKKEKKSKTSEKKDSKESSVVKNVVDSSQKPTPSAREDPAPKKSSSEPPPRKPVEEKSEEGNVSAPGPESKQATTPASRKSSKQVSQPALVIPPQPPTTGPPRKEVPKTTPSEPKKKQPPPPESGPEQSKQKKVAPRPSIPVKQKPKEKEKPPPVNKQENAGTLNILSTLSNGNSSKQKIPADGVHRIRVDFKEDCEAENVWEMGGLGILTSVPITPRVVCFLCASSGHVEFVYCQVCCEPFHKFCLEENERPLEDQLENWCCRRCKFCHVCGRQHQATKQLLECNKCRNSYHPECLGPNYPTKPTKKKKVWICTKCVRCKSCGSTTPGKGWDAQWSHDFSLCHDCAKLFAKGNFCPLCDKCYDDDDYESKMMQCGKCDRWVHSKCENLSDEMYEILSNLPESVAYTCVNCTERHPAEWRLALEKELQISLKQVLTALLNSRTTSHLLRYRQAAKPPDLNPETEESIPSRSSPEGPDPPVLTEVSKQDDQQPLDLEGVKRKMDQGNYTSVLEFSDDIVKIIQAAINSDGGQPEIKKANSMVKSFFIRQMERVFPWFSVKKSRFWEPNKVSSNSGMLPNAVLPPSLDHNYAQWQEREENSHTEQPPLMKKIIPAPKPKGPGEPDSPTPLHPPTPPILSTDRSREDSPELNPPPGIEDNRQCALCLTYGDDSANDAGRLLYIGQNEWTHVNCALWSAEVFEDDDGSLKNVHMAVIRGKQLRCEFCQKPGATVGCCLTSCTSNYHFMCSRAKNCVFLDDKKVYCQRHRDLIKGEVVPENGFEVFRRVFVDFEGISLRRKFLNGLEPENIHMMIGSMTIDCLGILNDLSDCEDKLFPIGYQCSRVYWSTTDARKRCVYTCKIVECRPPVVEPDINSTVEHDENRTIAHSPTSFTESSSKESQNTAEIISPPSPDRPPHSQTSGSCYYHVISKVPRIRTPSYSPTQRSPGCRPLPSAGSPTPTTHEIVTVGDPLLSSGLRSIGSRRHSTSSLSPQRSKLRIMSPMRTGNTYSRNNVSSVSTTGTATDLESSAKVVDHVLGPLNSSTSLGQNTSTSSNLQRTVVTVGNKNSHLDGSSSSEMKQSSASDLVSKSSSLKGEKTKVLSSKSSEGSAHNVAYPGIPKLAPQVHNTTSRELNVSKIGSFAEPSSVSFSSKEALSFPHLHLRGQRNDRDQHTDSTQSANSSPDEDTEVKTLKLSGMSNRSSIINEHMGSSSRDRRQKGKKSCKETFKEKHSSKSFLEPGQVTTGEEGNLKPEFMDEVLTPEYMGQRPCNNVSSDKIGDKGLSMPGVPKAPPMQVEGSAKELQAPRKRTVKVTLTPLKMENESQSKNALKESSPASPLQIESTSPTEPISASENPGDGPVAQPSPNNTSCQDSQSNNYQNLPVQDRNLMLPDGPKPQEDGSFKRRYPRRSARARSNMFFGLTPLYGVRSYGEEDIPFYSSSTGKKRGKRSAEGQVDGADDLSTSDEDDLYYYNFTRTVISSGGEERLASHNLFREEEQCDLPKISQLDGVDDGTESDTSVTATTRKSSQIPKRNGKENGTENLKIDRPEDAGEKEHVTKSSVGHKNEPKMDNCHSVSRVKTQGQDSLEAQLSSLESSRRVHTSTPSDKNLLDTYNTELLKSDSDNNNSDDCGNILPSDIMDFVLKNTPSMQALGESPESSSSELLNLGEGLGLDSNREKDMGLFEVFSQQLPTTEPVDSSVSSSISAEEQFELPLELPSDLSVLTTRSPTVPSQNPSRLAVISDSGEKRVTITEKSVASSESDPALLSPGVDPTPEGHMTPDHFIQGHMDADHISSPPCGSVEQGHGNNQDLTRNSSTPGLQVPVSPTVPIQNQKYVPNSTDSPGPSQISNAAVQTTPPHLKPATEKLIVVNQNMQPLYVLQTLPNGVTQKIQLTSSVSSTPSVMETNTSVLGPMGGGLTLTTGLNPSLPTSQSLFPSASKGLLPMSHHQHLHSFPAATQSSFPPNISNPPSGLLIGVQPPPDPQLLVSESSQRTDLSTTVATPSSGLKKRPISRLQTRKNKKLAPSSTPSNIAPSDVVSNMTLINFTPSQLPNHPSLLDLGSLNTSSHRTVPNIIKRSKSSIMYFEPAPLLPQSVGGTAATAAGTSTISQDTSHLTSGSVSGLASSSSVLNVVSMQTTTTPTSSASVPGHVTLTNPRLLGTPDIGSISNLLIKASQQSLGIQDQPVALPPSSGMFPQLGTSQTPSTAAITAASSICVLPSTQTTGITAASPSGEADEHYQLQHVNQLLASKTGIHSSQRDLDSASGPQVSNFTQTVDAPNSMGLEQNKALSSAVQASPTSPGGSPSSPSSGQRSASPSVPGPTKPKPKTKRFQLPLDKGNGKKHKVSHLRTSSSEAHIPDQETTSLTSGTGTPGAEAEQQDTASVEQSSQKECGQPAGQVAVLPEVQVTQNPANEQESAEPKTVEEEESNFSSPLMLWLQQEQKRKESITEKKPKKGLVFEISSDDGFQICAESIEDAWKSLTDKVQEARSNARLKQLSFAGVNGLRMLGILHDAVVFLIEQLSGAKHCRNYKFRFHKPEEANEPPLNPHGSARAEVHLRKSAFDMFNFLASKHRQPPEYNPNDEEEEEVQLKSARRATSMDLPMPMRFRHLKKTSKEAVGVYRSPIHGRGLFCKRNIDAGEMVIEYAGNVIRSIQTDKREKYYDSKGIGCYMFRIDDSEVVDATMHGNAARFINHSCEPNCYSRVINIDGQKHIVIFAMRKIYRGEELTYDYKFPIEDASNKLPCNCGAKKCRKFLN
UniProt Q8NG31: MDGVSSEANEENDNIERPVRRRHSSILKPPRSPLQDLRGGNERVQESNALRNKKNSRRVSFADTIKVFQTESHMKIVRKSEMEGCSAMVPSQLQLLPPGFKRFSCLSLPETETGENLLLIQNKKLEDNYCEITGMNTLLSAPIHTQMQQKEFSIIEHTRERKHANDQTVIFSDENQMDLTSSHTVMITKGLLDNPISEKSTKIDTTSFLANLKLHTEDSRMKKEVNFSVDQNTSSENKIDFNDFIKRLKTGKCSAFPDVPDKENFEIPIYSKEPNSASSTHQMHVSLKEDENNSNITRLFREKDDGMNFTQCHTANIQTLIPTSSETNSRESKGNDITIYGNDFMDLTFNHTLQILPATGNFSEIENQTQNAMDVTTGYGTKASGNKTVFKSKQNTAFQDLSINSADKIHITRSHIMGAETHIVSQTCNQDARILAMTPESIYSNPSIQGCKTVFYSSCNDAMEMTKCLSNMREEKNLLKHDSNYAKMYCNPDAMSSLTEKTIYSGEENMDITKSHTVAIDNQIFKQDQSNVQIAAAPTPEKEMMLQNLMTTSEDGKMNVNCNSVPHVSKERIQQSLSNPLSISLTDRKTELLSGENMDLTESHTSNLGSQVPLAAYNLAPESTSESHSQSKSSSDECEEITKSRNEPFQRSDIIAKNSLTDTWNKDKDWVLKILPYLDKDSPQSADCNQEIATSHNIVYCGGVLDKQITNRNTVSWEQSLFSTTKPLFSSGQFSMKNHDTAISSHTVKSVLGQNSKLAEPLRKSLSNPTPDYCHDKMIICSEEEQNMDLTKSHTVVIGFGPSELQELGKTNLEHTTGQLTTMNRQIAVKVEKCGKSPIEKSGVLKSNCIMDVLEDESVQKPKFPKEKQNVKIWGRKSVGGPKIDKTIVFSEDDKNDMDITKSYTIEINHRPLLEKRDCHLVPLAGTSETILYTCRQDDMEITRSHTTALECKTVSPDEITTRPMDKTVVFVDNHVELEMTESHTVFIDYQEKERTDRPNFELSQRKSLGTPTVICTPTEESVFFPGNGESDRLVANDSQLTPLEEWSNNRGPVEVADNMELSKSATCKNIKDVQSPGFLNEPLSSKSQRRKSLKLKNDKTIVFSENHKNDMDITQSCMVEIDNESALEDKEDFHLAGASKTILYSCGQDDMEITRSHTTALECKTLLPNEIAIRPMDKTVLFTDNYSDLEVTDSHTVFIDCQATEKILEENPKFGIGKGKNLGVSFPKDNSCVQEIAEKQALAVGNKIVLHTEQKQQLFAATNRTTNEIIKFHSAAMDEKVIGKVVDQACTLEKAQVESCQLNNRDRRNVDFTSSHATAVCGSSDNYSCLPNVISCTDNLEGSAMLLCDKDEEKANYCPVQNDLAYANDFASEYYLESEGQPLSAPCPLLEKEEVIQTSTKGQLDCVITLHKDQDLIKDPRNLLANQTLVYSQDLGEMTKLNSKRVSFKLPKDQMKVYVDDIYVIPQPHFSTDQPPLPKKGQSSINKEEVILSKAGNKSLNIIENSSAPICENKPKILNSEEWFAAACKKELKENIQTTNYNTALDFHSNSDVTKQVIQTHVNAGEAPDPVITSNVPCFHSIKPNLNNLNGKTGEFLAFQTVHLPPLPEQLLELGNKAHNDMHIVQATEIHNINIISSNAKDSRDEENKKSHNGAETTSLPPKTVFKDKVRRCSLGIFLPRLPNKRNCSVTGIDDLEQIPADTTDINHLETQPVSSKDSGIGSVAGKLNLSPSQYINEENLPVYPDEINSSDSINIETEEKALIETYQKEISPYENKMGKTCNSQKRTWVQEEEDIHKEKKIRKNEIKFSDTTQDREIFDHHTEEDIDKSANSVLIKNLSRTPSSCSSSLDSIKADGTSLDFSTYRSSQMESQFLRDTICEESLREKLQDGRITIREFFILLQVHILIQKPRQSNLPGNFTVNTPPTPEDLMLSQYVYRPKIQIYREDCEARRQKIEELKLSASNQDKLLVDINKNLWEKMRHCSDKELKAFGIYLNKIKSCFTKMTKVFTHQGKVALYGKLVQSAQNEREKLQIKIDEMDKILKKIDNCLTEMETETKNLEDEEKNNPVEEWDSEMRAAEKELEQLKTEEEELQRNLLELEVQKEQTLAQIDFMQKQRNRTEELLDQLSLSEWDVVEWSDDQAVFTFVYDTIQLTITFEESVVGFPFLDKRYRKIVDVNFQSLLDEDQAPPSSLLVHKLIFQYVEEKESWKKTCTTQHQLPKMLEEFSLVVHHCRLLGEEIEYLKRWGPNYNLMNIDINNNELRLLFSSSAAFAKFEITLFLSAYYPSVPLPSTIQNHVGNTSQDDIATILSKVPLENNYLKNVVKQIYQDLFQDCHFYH

What was measured:
Assay in all cases: log2 fold change, soluble protein after heating vs DMSO (PISA); higher = thermal stabilisation; K562 lysate, 10 uM; active = over 0.2 and 3.5 SD of the protein, either way, in both replicates (recomputed)
[1] = compound: Cc1cn(-c2cc(NC(=O)c3ccc(C)c(Nc4nccc(-c5cccnc5)n4)c3)cc(C(F)(F)F)c2)cn1 [nilotinib]
Summary of the method: (§1)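 Soluble protein was defined as the supernatant remaining after 21,000xg for 90 min, following pooling of heated aliquots and adjustment to 0.5% NP-40 at 4°C. Before that, crude K562 extract at 1 mg/mL protein in PBS pH 7.4 with 1 mM MgCl2 was treated with 10 μM compound for 30 min and heated for 3 min across 48°C-58°C. Quantification used TMTpro 16plex LC-MS/MS with channel sums equalised, and values are log-two fold changes in thermal stability relative to solvent controls from duplicates.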

[2] = compound: Cc1nc(Nc2n[nH]c3c2CN(C(=O)N[C@H](CN(C)C)c2ccccc2)C3(C)C)c2sccc2n1
Summary of the method: as §1

[3] = compound: Cc1nc(Nc2ncc(C(=O)Nc3c(C)cccc3Cl)s2)cc(N2CCN(CCO)CC2)n1 [dasatinib]
Summary of the method: as §1

[4] = compound: Cc1ncc(-c2ccnc(Nc3ccc(S(C)(=O)=O)cc3)n2)n1C(C)C
Summary of the method: as §1

[5] = compound: Cn1cc(-c2ccc3c(c2)CCN3C(=O)Cc2cccc(C(F)(F)F)c2)c2c(N)ncnc21
Summary of the method: as §1

[6] = compound: Cn1cc(CNCC2CCN(c3ncc(C(=O)NO)cn3)CC2)c2ccccc21 [quisinostat]
Summary of the method: as §1

[7] = compound: Cn1cncc1[C@@](N)(c1ccc(Cl)cc1)c1ccc2c(c1)c(-c1cccc(Cl)c1)cc(=O)n2C [tipifarnib]
Summary of the method: as §1

[8] = compound: NC(=O)Nc1cc(-c2cccc(F)c2)sc1C(=O)N[C@H]1CCCNC1
Summary of the method: as §1

[9] = compound: NC(=O)c1cnc(N[C@@H]2CCCC[C@@H]2N)nc1Nc1cccc(-n2nccn2)c1
Summary of the method: as §1

[10] = compound: NC1(c2ccc(-c3nc4ccn5c(=O)[nH]nc5c4cc3-c3ccccc3)cc2)CCC1
Summary of the method: as §1

[11] = compound: NCC(=O)Nc1ccc(-n2nc(C(F)(F)F)cc2-c2ccc3c(ccc4ccccc43)c2)cc1
Summary of the method: as §1

[12] = compound: O=C(CCCCCCC(=O)Nc1ccccc1)NO [vorinostat]
Summary of the method: as §1

[13] = compound: O=C(O)c1ccc2c(c1)nc(Nc1cccc(Cl)c1)c1ccncc12 [silmitasertib]
Summary of the method: as §1

[14] = compound: O=C1NC(=O)C(c2cnc3ccccn23)=C1c1cn2c3c(cc(F)cc13)CN(C(=O)N1CCCCC1)CC2
Summary of the method: as §1

[15] = compound: c1cn2cc(-c3ccc4cn[nH]c4c3)nc(Nc3ccc(N4CCOCC4)cc3)c2n1 [entospletinib]
Summary of the method: as §1

Measured: log2 fold change

KIAA0513 (UniProt O60268)
inactive: [1] 0.014 | [2] -0.029 | [3] 0.042 | [4] 0.036 | [5] -0.02 | [6] -0.067 | [7] -0.086 | [8] -0.01 | [9] -0.016 | [10] -0.001 | [11] 0.007 | [12] -0.032 | [13] 0.022 | [14] 0.001 | [15] 0

LARP1B, A0A3B3ISF0
inactive: [1] 0.035 | [2] -0.016 | [3] -0.041 | [4] -0.007 | [5] 0.117 | [6] 0.002 | [7] 0.14 | [8] -0.002 | [9] -0.021 | [10] 0.018 | [11] 0.084 | [12] 0.016 | [13] 0.005 | [14] 0.015 | [15] -0.025

KIAA1143 (UniProt Q96AT1)
inactive: [1] -0.006 | [2] 0.01 | [3] 0.021 | [4] -0.03 | [5] 0.002 | [6] -0.112 | [7] -0.038 | [8] -0.012 | [9] -0.017 | [10] -0.022 | [11] -0.035 | [12] 0.146 | [13] -0.05 | [14] -0.034 | [15] -0.016

KIF4B (UniProt Q2VIQ3)
active: [12] -0.506
inactive: [1] -0.016 | [2] 0.034 | [3] -0.013 | [4] 0.049 | [5] 0.096 | [6] -0.08 | [7] -0.009 | [8] 0.037 | [9] 0.045 | [10] -0.078 | [11] -0.035 | [13] 0.027 | [14] -0.02 | [15] 0

KYAT1 (UniProt Q16773)
inactive: [1] 0.028 | [2] 0.012 | [3] 0.006 | [4] -0.007 | [5] 0.008 | [6] -0.026 | [7] -0.008 | [8] 0.008 | [9] -0.019 | [10] 0.001 | [11] -0.038 | [12] 0.083 | [13] -0.02 | [14] -0.023 | [15] -0.047

KMT2A isoform 3 (UniProt Q03164)
inactive: [1] 0.098 | [3] 0.017 | [4] 0.154 | [5] 0.056 | [6] -0.156 | [7] -0.178 | [8] 0.032 | [9] 0.133 | [10] -0.037 | [11] 0.046 | [12] 0.101 | [13] 0.012 | [14] 0.066 | [15] -0.034
active: [2] -0.428

KIF3A (UniProt Q9Y496)
inactive: [1] -0.005 | [2] -0.001 | [3] 0.151 | [4] -0.016 | [5] -0.057 | [6] 0.003 | [7] 0.015 | [8] 0.07 | [9] -0.027 | [10] 0.009 | [11] 0.076 | [12] -0.094 | [13] 0.036 | [14] 0.137 | [15] -0.044

KPNA2 (UniProt P52292)
inactive: [1] -0.051 | [2] -0.002 | [3] -0.041 | [4] 0.018 | [5] 0.039 | [6] -0.01 | [7] -0.023 | [8] 0.026 | [9] 0.039 | [10] -0.05 | [11] -0.014 | [13] 0.018 | [14] 0.009 | [15] 0.019
active: [12] -0.376

KLHDC4 (UniProt Q8TBB5)
inactive: [1] -0.033 | [2] 0.033 | [3] 0.026 | [4] -0.062 | [5] -0.047 | [6] -0.029 | [7] 0.02 | [8] 0.031 | [9] -0.123 | [10] 0.033 | [11] -0.022 | [12] -0.086 | [13] -0.029 | [14] 0.005 | [15] 0.009

KIF11 (UniProt P52732)
active: [12] -0.252
inactive: [1] -0.016 | [2] 0.003 | [3] -0.021 | [4] -0.018 | [5] 0.034 | [6] -0.022 | [7] -0.007 | [8] 0.006 | [9] 0 | [10] 0 | [11] -0.013 | [13] 0.016 | [14] -0.033 | [15] 0.001

Copied from the listing (two entries):
KLHDC4 (UniProt Q8TBB5)
inactive: [1] -0.033 | [2] 0.033 | [3] 0.026 | [4] -0.062 | [5] -0.047 | [6] -0.029 | [7] 0.02 | [8] 0.031 | [9] -0.123 | [10] 0.033 | [11] -0.022 | [12] -0.086 | [13] -0.029 | [14] 0.005 | [15] 0.009

KIF11 (UniProt P52732)
active: [12] -0.252
inactive: [1] -0.016 | [2] 0.003 | [3] -0.021 | [4] -0.018 | [5] 0.034 | [6] -0.022 | [7] -0.007 | [8] 0.006 | [9] 0 | [10] 0 | [11] -0.013 | [13] 0.016 | [14] -0.033 | [15] 0.001

Remaining list, next part.

KIF4A (UniProt O95239)
inactive: [1] -0.02 | [2] 0.029 | [3] -0.011 | [4] 0.014 | [5] 0.037 | [6] -0.104 | [7] 0.017 | [8] 0.042 | [9] -0.014 | [10] 0.014 | [11] -0.017 | [13] 0.017 | [14] 0.013 | [15] 0.001
active: [12] -0.445

KIFC1 (UniProt Q9BW19)
inactive: [1] -0.008 | [2] 0.003 | [3] -0.031 | [4] -0.002 | [5] 0.034 | [6] -0.055 | [7] 0.006 | [8] 0.001 | [9] -0.024 | [10] -0.025 | [11] 0.02 | [13] 0.03 | [14] -0.04 | [15] -0.002
active: [12] -0.898

KIAA2013 (UniProt Q8IYS2)
inactive: [1] 0.008 | [2] -0.028 | [3] -0.022 | [4] 0.025 | [5] -0.01 | [6] 0.104 | [7] -0.031 | [8] 0.045 | [9] -0.013 | [10] 0.039 | [11] 0.022 | [12] 0.138 | [13] -0.072 | [14] 0.071 | [15] -0.02

KNL1 (UniProt Q8NG31)
inactive: [1] 0.011 | [2] -0.004 | [3] -0.014 | [4] 0.02 | [5] 0.012 | [6] -0.048 | [7] -0.06 | [8] 0.023 | [9] 0.024 | [10] -0.001 | [11] 0.022 | [13] -0.003 | [14] -0.009 | [15] -0.011
active: [12] -0.254

KTN1 (UniProt Q86UP2)
inactive: [1] -0.008 | [2] 0 | [3] -0.007 | [4] 0.016 | [5] -0.005 | [6] -0.035 | [7] -0.002 | [8] 0.002 | [9] 0 | [10] -0.002 | [11] 0.004 | [12] 0.013 | [13] -0.001 | [14] 0.004 | [15] -0.03

KHSRP (UniProt Q92945)
inactive: [1] -0.05 | [2] 0.004 | [3] 0.021 | [4] -0.027 | [5] 0.015 | [6] 0.105 | [7] -0.001 | [8] 0.004 | [9] -0.009 | [10] 0.019 | [11] -0.016 | [12] 0.028 | [13] -0.003 | [14] -0.01 | [15] 0.015

KPNB1 (UniProt Q14974)
inactive: [1] 0.006 | [2] -0.012 | [3] -0.037 | [4] 0.01 | [5] -0.002 | [6] -0.009 | [7] -0.01 | [8] -0.006 | [9] 0.001 | [10] -0.004 | [11] 0.04 | [12] 0.028 | [13] -0.006 | [14] 0.018 | [15] 0.004

LAMTOR4 (UniProt Q0VGL1)
inactive: [1] 0.093 | [2] -0.042 | [3] -0.005 | [4] -0.008 | [5] -0.016 | [6] -0.101 | [7] -0.012 | [8] 0 | [9] -0.045 | [10] -0.025 | [11] 0.027 | [12] 0.08 | [13] -0.022 | [14] -0.033 | [15] 0.02

L3HYPDH (UniProt Q96EM0)
active: [12] -0.31
inactive: [1] 0.019 | [2] 0.015 | [3] 0.073 | [4] 0.001 | [5] -0.003 | [6] -0.053 | [7] -0.002 | [8] 0.033 | [9] 0.015 | [10] 0.009 | [11] 0.023 | [13] 0 | [14] -0.02 | [15] -0.005

KIF5B (UniProt P33176)
inactive: [1] 0.006 | [2] -0.029 | [3] 0.003 | [4] -0.009 | [5] 0.006 | [6] -0.008 | [7] 0.009 | [8] 0.003 | [9] 0.007 | [10] 0.013 | [11] -0.003 | [12] -0.114 | [13] -0.009 | [14] -0.007 | [15] 0.011

KDSR (UniProt Q06136)
inactive: [1] -0.01 | [2] 0.025 | [3] -0.053 | [4] -0.025 | [5] -0.084 | [6] -0.069 | [7] -0.039 | [8] 0.045 | [9] -0.018 | [10] -0.024 | [11] 0.033 | [12] 0.006 | [13] -0.066 | [14] -0.03 | [15] 0.061
